# Experimental data published in article PMC6858373 (Scientific Reports, 2019).
# By UniProt entry, the sequences of proteins in these tests, tags left out.
# UniProt P08659, whole entry N50D/N119G/S548I/K549A/L550V, looked up: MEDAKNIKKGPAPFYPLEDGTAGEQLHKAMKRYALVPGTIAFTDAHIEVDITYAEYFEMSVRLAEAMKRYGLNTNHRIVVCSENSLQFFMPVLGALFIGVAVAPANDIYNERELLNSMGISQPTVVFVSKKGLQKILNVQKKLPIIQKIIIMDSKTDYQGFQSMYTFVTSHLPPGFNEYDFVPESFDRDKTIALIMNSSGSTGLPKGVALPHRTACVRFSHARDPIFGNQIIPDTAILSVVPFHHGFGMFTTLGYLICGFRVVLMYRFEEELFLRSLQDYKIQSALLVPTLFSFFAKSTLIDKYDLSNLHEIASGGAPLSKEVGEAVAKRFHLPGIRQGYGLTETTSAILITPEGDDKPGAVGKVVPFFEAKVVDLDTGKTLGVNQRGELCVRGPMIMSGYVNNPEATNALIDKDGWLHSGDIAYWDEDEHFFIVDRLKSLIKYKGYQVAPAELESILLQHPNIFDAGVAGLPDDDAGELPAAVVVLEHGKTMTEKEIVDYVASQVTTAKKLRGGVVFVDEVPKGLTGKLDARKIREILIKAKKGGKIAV
# Biological target: full-length P. pyralis luciferase (Photinus pyralis, UniProt P08659, K549A/L550V/N119G/N50D/S548I)
# Assay type: cell-based
compound,measurement,value
O=[N+]([O-])c1ccc(-c2nc(-c3ccncc3)c(-c3ccc(F)cc3)[nH]2)cc1 [PD 169316],Luciferase Assay % Lum (full-length luciferase counter-screen),97.78%
same,Luciferase Assay Z-score (full-length luciferase counter-screen),-0.28
